Data from patent US20060194814A1, “Benzamide compounds” (priority 2003, published 2006).
Structures can show the parent of a compound that is named as a salt. Some of these results come from one statement about several compounds together.

Test system: HIV-1 IIIB strain
Assay: HIV-1 IIIB replication in HeLa indicator cells (AV-Finder-HIV assay), no pre-medication
Format: cell-based
Settings: concentrations in the nanomolar range

## CCN(CC)CCOC(=O)c1ccc(N)cc1 [SP01, procaine HCl]
  inhibition of HIV-1 IIIB replication: up to 50%
